The list shows a part of the results.
Legend:
Test in all cases: log2 fold change, soluble protein after heating vs DMSO (PISA); higher = thermal stabilisation; K562 lysate, 10 uM; active = over 0.2 and 3.5 SD of the protein, either way, in both replicates (recomputed)
[1] = compound: C=CC(=O)N1CCC[C@@H](n2nc(-c3ccc(Oc4ccccc4)cc3)c3c(N)ncnc32)C1 [ibrutinib]
How it was run: (§1)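 K562 pellets were dounce-homogenised in PBS pH 7.4 with 1 mM MgCl2, and the crude extract at 1 mg/mL protein was treated with 10 μM compound for 30 min. Aliquots were heated for 3 min across 48°C-58°C, pooled, and brought to 0.5% NP-40 at 4°C; soluble protein was the supernatant after 21,000xg for 90 min. Soluble protein was quantified by TMTpro 16plex LC-MS/MS with channel sums equalised, and reported as log2 fold change in thermal stability against DMSO controls, with values from duplicates.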

Protein sequences, listed by entry. Tags and fused reporters are not part of them. Lines headed by an entry give the natural chain unless they say otherwise; changes in a name come on top.
UniProt Q15517: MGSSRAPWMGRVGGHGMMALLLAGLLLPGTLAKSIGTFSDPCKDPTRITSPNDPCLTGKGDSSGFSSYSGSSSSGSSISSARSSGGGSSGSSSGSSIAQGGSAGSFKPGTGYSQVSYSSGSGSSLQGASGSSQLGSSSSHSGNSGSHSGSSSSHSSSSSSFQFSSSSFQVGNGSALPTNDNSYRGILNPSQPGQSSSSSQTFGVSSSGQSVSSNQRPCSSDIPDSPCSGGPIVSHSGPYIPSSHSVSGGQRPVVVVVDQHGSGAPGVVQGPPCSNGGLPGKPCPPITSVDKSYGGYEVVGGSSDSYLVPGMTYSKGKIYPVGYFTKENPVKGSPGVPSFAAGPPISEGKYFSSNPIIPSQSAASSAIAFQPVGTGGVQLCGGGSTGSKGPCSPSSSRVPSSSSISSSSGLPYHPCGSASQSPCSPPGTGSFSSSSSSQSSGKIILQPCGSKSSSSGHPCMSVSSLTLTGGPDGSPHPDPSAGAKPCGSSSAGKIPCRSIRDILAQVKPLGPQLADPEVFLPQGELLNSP
UniProt Q96G28: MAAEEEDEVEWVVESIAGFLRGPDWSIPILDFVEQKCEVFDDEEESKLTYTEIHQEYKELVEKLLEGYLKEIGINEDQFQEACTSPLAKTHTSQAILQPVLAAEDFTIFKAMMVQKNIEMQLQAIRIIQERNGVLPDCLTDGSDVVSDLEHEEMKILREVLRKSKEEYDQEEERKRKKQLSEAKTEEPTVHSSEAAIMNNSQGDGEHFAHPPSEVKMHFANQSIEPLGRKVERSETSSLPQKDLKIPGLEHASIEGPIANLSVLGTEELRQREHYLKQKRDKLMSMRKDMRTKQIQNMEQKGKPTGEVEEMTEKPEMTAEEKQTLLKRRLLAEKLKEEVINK
UniProt Q9H3R5: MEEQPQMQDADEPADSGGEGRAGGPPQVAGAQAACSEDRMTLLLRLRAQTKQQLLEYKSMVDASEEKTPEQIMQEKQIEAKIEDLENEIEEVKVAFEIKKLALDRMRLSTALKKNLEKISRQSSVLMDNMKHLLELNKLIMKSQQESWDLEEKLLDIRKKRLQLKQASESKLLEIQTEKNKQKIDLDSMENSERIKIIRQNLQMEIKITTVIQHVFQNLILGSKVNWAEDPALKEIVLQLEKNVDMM
UniProt P49336: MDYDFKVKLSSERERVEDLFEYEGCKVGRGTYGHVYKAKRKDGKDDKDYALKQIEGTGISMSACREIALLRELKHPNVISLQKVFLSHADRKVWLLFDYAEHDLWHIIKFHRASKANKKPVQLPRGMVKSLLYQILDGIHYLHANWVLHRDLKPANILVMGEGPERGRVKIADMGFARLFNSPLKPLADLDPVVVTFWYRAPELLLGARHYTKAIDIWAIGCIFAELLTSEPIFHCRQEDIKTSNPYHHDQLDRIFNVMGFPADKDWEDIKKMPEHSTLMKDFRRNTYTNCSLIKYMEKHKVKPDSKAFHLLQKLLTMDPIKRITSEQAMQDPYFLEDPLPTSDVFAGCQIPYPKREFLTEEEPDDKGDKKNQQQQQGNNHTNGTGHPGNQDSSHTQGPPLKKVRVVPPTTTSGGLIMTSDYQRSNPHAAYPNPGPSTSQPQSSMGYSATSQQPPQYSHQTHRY
UniProt Q16543: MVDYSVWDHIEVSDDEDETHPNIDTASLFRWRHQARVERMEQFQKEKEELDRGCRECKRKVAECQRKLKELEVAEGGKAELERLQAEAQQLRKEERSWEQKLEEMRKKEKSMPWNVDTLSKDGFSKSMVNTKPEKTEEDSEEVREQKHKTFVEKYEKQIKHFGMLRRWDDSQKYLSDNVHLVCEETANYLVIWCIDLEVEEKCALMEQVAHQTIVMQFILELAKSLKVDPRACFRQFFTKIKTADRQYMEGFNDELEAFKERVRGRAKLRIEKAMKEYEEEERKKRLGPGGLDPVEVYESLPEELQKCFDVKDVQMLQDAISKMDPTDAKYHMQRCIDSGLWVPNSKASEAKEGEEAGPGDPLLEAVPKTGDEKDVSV
UniProt P41208: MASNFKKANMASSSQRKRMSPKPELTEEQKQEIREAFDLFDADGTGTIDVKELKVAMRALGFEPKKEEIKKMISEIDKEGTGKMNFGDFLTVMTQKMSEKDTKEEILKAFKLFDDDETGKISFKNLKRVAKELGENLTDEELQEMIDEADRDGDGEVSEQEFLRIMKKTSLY
UniProt Q8TEP8: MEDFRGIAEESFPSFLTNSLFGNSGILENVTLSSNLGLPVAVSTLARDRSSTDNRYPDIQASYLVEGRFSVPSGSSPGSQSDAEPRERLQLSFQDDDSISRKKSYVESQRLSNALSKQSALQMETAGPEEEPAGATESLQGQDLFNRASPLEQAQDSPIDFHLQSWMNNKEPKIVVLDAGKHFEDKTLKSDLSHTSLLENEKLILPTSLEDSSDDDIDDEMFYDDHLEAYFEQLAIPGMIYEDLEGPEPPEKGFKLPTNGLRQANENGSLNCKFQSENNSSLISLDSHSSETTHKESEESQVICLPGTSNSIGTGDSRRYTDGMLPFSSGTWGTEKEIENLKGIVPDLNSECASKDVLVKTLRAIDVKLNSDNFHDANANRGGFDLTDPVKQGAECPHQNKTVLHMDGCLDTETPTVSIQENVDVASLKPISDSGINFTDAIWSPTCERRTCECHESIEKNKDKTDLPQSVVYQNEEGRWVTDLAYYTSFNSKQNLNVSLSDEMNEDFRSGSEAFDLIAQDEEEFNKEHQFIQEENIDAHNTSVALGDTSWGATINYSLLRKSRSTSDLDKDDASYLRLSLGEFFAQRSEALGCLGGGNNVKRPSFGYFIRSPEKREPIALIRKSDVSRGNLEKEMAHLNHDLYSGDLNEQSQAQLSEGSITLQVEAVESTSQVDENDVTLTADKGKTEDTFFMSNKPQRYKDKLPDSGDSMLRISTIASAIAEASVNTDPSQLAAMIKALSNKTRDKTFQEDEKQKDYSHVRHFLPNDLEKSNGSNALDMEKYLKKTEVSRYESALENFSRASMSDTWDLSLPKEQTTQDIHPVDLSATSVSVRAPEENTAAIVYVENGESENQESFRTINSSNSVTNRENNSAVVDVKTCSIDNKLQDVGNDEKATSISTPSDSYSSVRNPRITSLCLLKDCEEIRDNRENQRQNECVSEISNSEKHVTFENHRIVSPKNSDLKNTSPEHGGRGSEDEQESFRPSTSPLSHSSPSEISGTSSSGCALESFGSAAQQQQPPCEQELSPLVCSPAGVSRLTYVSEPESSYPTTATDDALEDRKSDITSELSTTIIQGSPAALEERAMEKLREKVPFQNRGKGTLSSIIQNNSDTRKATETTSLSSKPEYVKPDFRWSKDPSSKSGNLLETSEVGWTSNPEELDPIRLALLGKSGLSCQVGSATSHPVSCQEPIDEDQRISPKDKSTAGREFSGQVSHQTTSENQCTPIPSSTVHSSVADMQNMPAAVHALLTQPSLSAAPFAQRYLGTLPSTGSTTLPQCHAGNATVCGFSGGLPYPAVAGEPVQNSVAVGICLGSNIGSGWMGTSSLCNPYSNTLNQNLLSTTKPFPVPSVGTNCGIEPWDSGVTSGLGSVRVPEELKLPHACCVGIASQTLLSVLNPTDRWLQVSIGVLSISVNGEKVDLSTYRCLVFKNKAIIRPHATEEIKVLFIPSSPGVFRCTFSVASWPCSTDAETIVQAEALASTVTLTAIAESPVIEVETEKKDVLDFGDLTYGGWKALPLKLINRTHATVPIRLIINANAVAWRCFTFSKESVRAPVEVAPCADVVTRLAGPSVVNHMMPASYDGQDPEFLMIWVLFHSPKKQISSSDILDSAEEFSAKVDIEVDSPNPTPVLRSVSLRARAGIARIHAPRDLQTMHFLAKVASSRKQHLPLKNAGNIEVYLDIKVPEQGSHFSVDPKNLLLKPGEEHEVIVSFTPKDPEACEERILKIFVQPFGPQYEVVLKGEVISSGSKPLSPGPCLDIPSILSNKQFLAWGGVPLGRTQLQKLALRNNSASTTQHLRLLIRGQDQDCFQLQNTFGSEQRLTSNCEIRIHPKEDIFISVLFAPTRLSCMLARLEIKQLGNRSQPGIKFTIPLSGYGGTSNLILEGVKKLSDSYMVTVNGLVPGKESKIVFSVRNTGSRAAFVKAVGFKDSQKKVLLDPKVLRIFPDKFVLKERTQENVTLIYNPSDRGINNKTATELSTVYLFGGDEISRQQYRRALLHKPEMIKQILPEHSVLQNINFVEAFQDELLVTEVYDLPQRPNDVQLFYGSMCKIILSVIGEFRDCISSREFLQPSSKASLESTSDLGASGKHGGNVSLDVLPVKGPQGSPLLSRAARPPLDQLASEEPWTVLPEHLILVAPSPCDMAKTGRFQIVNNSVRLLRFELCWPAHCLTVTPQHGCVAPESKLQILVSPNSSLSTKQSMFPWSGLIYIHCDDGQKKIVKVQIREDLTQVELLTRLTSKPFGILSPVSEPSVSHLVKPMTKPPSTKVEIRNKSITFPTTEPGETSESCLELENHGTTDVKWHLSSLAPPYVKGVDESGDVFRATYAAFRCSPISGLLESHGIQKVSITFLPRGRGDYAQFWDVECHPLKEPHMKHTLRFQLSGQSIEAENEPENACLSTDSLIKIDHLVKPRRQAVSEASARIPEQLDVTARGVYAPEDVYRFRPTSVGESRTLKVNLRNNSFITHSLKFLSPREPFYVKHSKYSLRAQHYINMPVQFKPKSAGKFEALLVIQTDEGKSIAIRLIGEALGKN
UniProt Q96FF9: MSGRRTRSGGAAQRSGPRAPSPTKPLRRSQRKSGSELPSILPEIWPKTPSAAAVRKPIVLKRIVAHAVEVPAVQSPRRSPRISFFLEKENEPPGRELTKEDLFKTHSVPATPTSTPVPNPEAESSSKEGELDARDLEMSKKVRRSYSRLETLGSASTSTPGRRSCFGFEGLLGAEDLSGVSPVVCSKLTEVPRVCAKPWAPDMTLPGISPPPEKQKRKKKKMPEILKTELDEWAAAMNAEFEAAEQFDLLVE
UniProt Q9NYV4, whole entry, looked up: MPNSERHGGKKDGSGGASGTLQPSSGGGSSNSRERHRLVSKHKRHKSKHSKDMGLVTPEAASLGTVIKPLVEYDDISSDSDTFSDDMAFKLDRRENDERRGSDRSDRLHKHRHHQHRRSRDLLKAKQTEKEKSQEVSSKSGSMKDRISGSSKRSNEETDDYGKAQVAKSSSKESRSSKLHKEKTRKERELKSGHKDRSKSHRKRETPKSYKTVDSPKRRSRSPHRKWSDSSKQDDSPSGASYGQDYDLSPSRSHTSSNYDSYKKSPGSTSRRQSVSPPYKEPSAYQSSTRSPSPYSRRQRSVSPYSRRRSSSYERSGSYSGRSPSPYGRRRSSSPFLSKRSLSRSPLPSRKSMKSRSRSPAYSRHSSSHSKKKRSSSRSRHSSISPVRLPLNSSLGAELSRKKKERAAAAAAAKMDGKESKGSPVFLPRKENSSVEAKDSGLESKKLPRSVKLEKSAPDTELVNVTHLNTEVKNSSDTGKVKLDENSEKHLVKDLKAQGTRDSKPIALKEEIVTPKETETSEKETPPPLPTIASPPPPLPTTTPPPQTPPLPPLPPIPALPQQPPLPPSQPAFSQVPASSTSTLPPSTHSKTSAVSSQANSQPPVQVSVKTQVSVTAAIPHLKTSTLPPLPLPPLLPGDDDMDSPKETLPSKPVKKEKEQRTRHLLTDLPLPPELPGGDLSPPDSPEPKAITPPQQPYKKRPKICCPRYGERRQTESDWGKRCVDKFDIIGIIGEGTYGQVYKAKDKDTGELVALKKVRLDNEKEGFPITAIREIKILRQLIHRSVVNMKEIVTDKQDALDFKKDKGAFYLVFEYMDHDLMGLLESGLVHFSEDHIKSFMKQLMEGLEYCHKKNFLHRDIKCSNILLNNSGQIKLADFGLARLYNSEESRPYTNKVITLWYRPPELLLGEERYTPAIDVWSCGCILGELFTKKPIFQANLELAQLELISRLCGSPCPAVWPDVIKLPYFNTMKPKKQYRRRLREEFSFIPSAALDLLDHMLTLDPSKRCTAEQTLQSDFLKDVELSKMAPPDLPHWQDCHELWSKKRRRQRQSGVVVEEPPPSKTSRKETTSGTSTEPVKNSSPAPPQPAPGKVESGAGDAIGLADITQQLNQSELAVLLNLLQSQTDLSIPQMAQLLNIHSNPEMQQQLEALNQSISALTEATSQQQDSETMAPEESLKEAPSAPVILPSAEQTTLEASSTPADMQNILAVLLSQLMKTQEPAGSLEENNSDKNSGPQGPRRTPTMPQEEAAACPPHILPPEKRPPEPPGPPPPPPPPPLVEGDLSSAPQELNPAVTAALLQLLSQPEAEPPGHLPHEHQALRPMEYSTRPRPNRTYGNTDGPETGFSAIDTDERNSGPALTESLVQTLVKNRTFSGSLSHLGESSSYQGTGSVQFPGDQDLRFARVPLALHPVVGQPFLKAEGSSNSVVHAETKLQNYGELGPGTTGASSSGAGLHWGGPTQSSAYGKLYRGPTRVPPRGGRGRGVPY
UniProt Q9Y281, whole entry, looked up: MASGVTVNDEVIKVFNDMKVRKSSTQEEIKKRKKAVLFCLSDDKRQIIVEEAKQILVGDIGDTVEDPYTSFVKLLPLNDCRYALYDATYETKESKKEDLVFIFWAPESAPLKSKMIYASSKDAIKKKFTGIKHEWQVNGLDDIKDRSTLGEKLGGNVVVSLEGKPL

[2] = compound: CC(=O)c1cnc2ccc(-c3cc(Cl)c(O)c(Cl)c3)nc2c1N[C@H]1CC[C@H](CN(C)C)CC1
How it was run: as §1

[3] = compound: CC(C)(C)Cn1c(N)nc2ccc(-c3[nH]c(C(C)(C)C)nc3-c3ccc(F)cc3)nc21 [ralimetinib]
How it was run: as §1

[4] = compound: CC(C)(O)CC(=O)NCCn1ccc2ncnc(Nc3ccc(Oc4cccc(C(F)(F)F)c4)c(Cl)c3)c21
How it was run: as §1

[5] = compound: CC(C)C1=C2N=C(C=C(N2N=C1)NCC3=CC=CC=C3)NCCCCCCN
How it was run: as §1

[6] = compound: CC1=C(C(CC(=O)N1)C2=CC=C(C=C2)C(F)(F)F)C(=O)NC3=C(C=C4C(=C3)C=NN4)F
How it was run: as §1

[7] = compound: CC1=C(C2=C(C=C1)C(=O)C3=CC=CC=C3N2CCCN)C
How it was run: as §1

[8] = compound: CC1=C(C=C(C=C1)NC(=O)C2=CC(=CC=C2)C(C)(C)C#N)NC3=CC4=C(C=C3)N=CN(C4=O)C
How it was run: as §1

[9] = compound: CC1=C(C=C(C=C1)NC(=O)C2=CC(=CC=C2)N(C)C)NC(=O)C3=CC=C(C=C3)O
How it was run: as §1

[10] = compound: CC1=CC=C(C=C1)SC2=C3C=C(SC3=CN=C2)C(=O)N
How it was run: as §1

[11] = compound: CCCS(=O)(=O)Nc1ccc(F)c(C(=O)c2c[nH]c3ncc(-c4ccc(Cl)cc4)cc23)c1F [vemurafenib]
How it was run: as §1

[12] = compound: CCCS(=O)(=O)Nc1ccc(F)c(C(=O)c2c[nH]c3ncc(Cl)cc23)c1F
How it was run: as §1

[13] = compound: CCN(CCCOc1ccc2c(Nc3cc(CC(=O)Nc4cccc(F)c4)[nH]n3)ncnc2c1)CCOP(=O)(O)O [barasertib]
How it was run: as §1

[14] = compound: CC[C@@H]1C(=O)N(C)c2cnc(Nc3ccc(C(=O)NC4CCN(C)CC4)cc3OC)nc2N1C1CCCC1
How it was run: as §1

[15] = compound: CC[C@@H]1C(=O)N(C)c2cnc(Nc3ccc(C(=O)N[C@H]4CC[C@H](N5CCN(CC6CC6)CC5)CC4)cc3OC)nc2N1C(C)C [volasertib]
How it was run: as §1

[16] = compound: CCn1c(C(=O)N(C2CC2)C2CC2)cc2c3c(ncn3C)c(Nc3cc(C)n(C)n3)nc21
How it was run: as §1

[17] = compound: CCn1cc(-c2ccnc3[nH]c(-c4cccc(CN(C)C)c4)cc23)c(-c2ccc(NC(=O)N(C)C)cc2)n1
How it was run: as §1

[18] = compound: CN1CCC(CNc2ccc3ncc(-c4cccc(OC(F)(F)F)c4)n3n2)CC1
How it was run: as §1

[19] = compound: CN1CCN(CCOc2cc(OC3CCOCC3)c3c(Nc4c(Cl)ccc5c4OCO5)ncnc3c2)CC1 [saracatinib]
How it was run: as §1

[20] = compound: CN1CCN(c2nc(C3=C(c4c[nH]c5ccccc45)C(=O)NC3=O)c3ccccc3n2)CC1 [sotrastaurin]
How it was run: as §1

Measured: log2 fold change

CDK19 (UniProt Q9BWU1)
inactive: [1] -0.115 | [2] 0.088 | [3] 0.056 | [4] 0.048 | [5] 0 | [6] -0.255 | [7] -0.033 | [8] 0.09 | [9] -0.031 | [10] -0.003 | [11] 0.275 | [12] 0.47 | [13] 0.085 | [14] -0.144 | [15] 0.165 | [16] 0.02 | [17] 0.032 | [18] 0.095 | [19] 0.059 | [20] 0.021

CDSN (UniProt Q15517)
inactive: [1] -0.156 | [2] -0.141 | [3] -0.051 | [4] 0.692 | [5] 0.012 | [6] 0.369 | [7] 0.128 | [8] -0.046 | [9] 0.044 | [10] -0.173 | [11] 0.356 | [12] -0.097 | [13] -0.931 | [14] 0.063 | [15] 0 | [16] -0.085 | [17] 0.212 | [18] -0.041 | [19] -0.014 | [20] -0.032

CFAP36 (UniProt Q96G28)
inactive: [1] -0.003 | [2] 0.038 | [3] 0 | [4] -0.047 | [5] 0.003 | [6] 0.012 | [7] -0.009 | [8] -0.016 | [9] 0.022 | [10] -0.009 | [11] -0.041 | [12] 0.043 | [13] -0.014 | [14] 0.121 | [15] -0.007 | [16] -0.042 | [17] 0.12 | [18] -0.014 | [19] -0.011 | [20] -0.019

CENPH (UniProt Q9H3R5)
inactive: [1] -0.025 | [2] 0.016 | [3] 0.005 | [4] -0.037 | [5] 0 | [6] -0.053 | [7] -0.008 | [8] -0.021 | [9] 0.022 | [10] 0.011 | [11] 0.032 | [12] -0.014 | [13] 0.037 | [14] -0.002 | [15] -0.029 | [16] -0.023 | [17] 0.045 | [18] -0.177 | [19] 0.049 | [20] 0.003

Random excerpt: 2 records from the list, in no set order.
CFAP36 (UniProt Q96G28)
inactive: [1] -0.003 | [2] 0.038 | [3] 0 | [4] -0.047 | [5] 0.003 | [6] 0.012 | [7] -0.009 | [8] -0.016 | [9] 0.022 | [10] -0.009 | [11] -0.041 | [12] 0.043 | [13] -0.014 | [14] 0.121 | [15] -0.007 | [16] -0.042 | [17] 0.12 | [18] -0.014 | [19] -0.011 | [20] -0.019

CDK19 (UniProt Q9BWU1)
inactive: [1] -0.115 | [2] 0.088 | [3] 0.056 | [4] 0.048 | [5] 0 | [6] -0.255 | [7] -0.033 | [8] 0.09 | [9] -0.031 | [10] -0.003 | [11] 0.275 | [12] 0.47 | [13] 0.085 | [14] -0.144 | [15] 0.165 | [16] 0.02 | [17] 0.032 | [18] 0.095 | [19] 0.059 | [20] 0.021

(cont.)

CEP44 (UniProt Q9C0F1)
inactive: [1] 0.038 | [2] -0.05 | [3] 0.031 | [4] -0.039 | [5] -0.037 | [6] -0.009 | [7] -0.008 | [8] -0.026 | [9] 0.054 | [10] -0.02 | [11] -0.035 | [12] 0.061 | [13] -0.004 | [14] 0.004 | [15] -0.021 | [16] 0.009 | [17] 0.043 | [18] -0.013 | [19] -0.002 | [20] -0.018

CDK8 (UniProt P49336)
inactive: [1] 0.006 | [2] 0.097 | [3] -0.041 | [4] -0.011 | [5] -0.073 | [6] -0.058 | [7] 0.095 | [8] 0.088 | [9] 0.016 | [10] 0.16 | [11] 0.065 | [12] 0.138 | [13] 0.002 | [15] -0.083 | [16] -0.011 | [17] -0.134 | [18] 0.045 | [19] 0.109 | [20] -0.001

CERS2 (UniProt Q96G23)
inactive: [1] 0.056 | [2] 0.006 | [3] 0.194 | [4] 0.035 | [5] 0.006 | [6] -0.059 | [7] 0.039 | [8] 0.038 | [9] -0.008 | [10] 0.012 | [11] 0 | [12] 0.084 | [13] 0.035 | [14] 0.025 | [15] -0.01 | [16] 0.009 | [17] 0.06 | [18] -0.037 | [19] 0.009 | [20] 0.088

CDC27 (UniProt G5EA36)
inactive: [1] 0.106 | [2] -0.015 | [3] 0.173 | [4] 0.062 | [5] 0.011 | [6] -0.009 | [7] -0.012 | [8] 0.074 | [9] -0.07 | [10] 0.023 | [12] -0.225 | [13] -0.073 | [15] 0.124 | [16] 0.037 | [17] 0.002 | [18] -0.109 | [19] 0.004 | [20] -0.027

CDC73 (UniProt Q6P1J9)
inactive: [1] -0.029 | [2] 0.021 | [3] 0.019 | [4] 0.002 | [5] 0.03 | [6] -0.003 | [7] 0.031 | [8] -0.008 | [9] 0.029 | [10] -0.003 | [11] 0.064 | [12] -0.002 | [13] 0.016 | [14] -0.027 | [15] -0.028 | [16] 0.012 | [17] 0.056 | [18] -0.109 | [19] 0.014 | [20] 0.031

CDC37 (UniProt Q16543)
inactive: [1] -0.008 | [2] -0.002 | [3] -0.019 | [4] 0.002 | [5] 0.008 | [6] -0.022 | [7] 0.014 | [8] -0.029 | [9] 0.006 | [10] -0.012 | [11] -0.018 | [12] -0.011 | [13] -0.02 | [14] 0.052 | [15] 0.012 | [16] -0.025 | [17] 0.051 | [18] -0.028 | [19] 0 | [20] -0.019

CETN2 (UniProt P41208)
inactive: [1] -0.016 | [2] 0.005 | [3] 0.089 | [4] 0.085 | [5] -0.024 | [6] 0.047 | [7] -0.026 | [8] -0.078 | [9] 0.066 | [10] 0.034 | [11] 0 | [12] -0.012 | [13] -0.007 | [14] 0.022 | [15] 0.007 | [16] 0.095 | [17] 0.064 | [18] 0.029 | [19] 0.042 | [20] 0.032

CEP192 (UniProt Q8TEP8)
inactive: [1] 0.022 | [2] -0.026 | [3] -0.021 | [4] -0.031 | [5] -0.021 | [6] 0.087 | [7] -0.024 | [8] -0.009 | [9] 0.035 | [10] 0.03 | [11] -0.003 | [12] 0.013 | [13] 0.206 | [14] 0.049 | [15] 0.05 | [16] 0.051 | [17] 0.499 | [18] -0.03 | [19] 0.002 | [20] -0.001

CDCA5 (UniProt Q96FF9)
inactive: [1] 0.046 | [2] -0.042 | [3] 0.04 | [4] 0.072 | [5] 0.049 | [6] -0.055 | [7] -0.024 | [8] 0.232 | [9] -0.047 | [10] 0.056 | [11] -0.045 | [12] 0.042 | [13] -0.061 | [14] 0.142 | [15] 0.04 | [16] -0.009 | [17] 0.029 | [18] -0.024 | [19] -0.041 | [20] -0.108

CDK12 (UniProt Q9NYV4)
inactive: [1] 0.028 | [2] -0.025 | [3] 0.004 | [4] -0.038 | [5] 0.054 | [6] -0.067 | [7] -0.039 | [8] 0.007 | [9] -0.003 | [10] 0.001 | [11] -0.045 | [12] -0.011 | [13] 0.024 | [14] 0.002 | [15] 0.031 | [16] 0.037 | [17] -0.101 | [18] -0.001 | [19] 0.038 | [20] -0.018

CFL2 (UniProt Q9Y281)
inactive: [1] 0 | [2] -0.016 | [3] 0.009 | [4] -0.084 | [5] -0.013 | [6] 0.005 | [7] -0.135 | [8] 0.007 | [9] 0.03 | [10] -0.021 | [11] -0.012 | [12] 0.005 | [13] -0.021 | [14] 0.028 | [15] 0 | [16] -0.023 | [17] -0.063 | [18] 0.032 | [19] -0.068 | [20] 0.013

CDKN2C (UniProt P42773)
inactive: [1] 0.188 | [2] -0.075 | [3] 0.047 | [4] -0.037 | [5] -0.031 | [6] -0.066 | [7] 0.015 | [8] 0.087 | [9] -0.023 | [10] 0.022 | [11] 0.029 | [12] -0.001 | [13] 0.357 | [14] -0.046 | [15] 0.085 | [16] 0.065 | [17] -0.076 | [18] -0.082 | [19] 0.062 | [20] -0.058

— the supplement of paper PMC10849652
